Results are given in words; binding and its absence hold for the method and conditions named. In cells and extracts the contact can be indirect. Tags and fused reporters may be left off the sequences shown.

The record followed here is paper doi:10.1101/2025.03.26.645569.

For this assay, the target named is T1, Punctin-GFP (Punctin/MADD-4 tagged at the C-terminus with GFP, knock-in) (C. elegans) (UniProt P90884).
T1 sequence: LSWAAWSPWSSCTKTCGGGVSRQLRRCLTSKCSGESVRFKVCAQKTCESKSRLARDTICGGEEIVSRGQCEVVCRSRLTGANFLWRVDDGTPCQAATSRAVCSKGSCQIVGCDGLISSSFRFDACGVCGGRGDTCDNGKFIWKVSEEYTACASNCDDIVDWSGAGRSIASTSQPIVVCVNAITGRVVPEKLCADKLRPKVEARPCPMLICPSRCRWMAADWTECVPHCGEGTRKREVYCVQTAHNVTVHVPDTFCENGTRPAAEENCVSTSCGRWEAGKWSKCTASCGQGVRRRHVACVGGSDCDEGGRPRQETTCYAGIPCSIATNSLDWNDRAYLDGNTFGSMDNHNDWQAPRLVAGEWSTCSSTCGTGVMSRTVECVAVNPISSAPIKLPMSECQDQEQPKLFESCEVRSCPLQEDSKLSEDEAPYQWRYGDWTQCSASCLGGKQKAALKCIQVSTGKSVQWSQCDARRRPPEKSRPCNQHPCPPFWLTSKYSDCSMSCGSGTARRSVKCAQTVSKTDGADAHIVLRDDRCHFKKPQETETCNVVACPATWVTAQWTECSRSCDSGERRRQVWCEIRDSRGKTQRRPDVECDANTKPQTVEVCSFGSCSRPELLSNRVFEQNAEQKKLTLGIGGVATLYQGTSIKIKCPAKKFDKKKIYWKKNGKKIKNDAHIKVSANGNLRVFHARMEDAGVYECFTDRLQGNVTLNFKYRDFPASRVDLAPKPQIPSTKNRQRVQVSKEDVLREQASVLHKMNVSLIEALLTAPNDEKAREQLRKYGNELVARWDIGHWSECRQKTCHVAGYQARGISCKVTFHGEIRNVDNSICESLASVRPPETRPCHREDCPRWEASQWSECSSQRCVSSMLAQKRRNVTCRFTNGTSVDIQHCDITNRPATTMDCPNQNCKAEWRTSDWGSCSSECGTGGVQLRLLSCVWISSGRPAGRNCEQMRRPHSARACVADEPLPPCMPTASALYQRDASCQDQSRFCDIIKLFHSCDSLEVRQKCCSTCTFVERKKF
The assay is described as follows: co-IP.

Take “CLE-1C-wSC (short isoform of CLE-1 tagged at the C-terminus with wormScarlet, knock-in) (C. elegans)”: the binding result is “no binding”.
